# Results of single-concentration screens

Data taken from ChEMBL document CHEMBL3988442, “University of Dundee, Small-Polar-MMV Screening Library” (2021).

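Assay of Toxoplasma gondii numbers, read through their beta-galactosidase reporter with a colour substrate. Tested at 50 µM. Higher reads as fewer parasites (inferred from which compounds were picked for retests). Of about 18,000 compounds tested this way, about 170 (0.94%) reached 50% or more in at least one test.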

The filed quantity is “Percent Effect” (%).
The controls that fix the scale are not given in the record; negative values are as filed.
This is an unselected part of the compounds tested.

SMILES	Percent Effect
Cc1ccc(NC(=O)N2CCSCC2)cc1C(N)=O	-1.533
Cc1c(C(=O)NCc2ccnc(N(C)C)c2)cnn1C	12.88
CC(C)CC(=O)Nc1cccc(CN)c1	-7.722
CNC(=O)c1cc(OC2CCNC2)ccn1 (centres unmarked)	2.7
CNC(=O)c1ccc(CN(C)CC2(C)COC2)cc1	-12.85
O=C(Nc1ccccc1N1CCCC1)C1CCOC1 (centres unmarked)	2.349
O=C(CN1CCn2ccnc2C1)Nc1ccc(Cl)cn1	-8.564
CNc1cc(C(=O)NCc2cc(C)nn2C)ccn1	0.9461
CCn1nc(C)cc1C(=O)N1CCN=C1SC	11.1
COc1cccc(C(N)C2CC2)n1 (centres unmarked)	2.447
CCc1nc(C)sc1C(=O)N[C@@H]1CCNC[C@H]1O	1.183
Cc1cc(CN(C)C(=O)c2c(C)nn(C)c2Cl)no1	33.33
CC(C)c1cc(CN2CCn3nc(CO)cc3C2)no1	8.265
CNc1ccc(N2CCOCC2)nc1	-5.467
CCN1CCCN(C(=O)c2ccc(N(C)C)nc2)CC1	-11.21
O=C(NC(CO)c1ccccc1)[C@@H](O)c1ccccc1 (some centres unmarked)	-4.907
Cc1cc(F)cc(S(=O)(=O)NCCCN)c1	5.1
Cc1ccc(OCc2ccnc(N(C)C)c2)nc1	6.794
CN1CC(CCN)C1	-0.5907
NC(=O)CN1CCCN(C(=O)c2ccc(F)cc2)CC1	0.9049
CC(C)(C)O[C@H]1C[C@H](N)C1	-9.707
CSc1ncnc2c1cnn2C	-2.652
CCOC(=O)NCCC(=O)NCc1ccccn1	-6.244
COCCN(Cc1cnn(C)c1)C(=O)C1CCNC1 (centres unmarked)	-19.59
O=C(c1cscn1)N1CCN(c2ccc(Cl)cn2)CC1	14.23
CC(C)(C)C(CCO)NC(=O)c1ccc(Br)cn1 (centres unmarked)	2.117
CCCNC(=O)N1CCN(Cc2c(C)noc2C)CC1	2.217
COc1ncccc1C(=O)NCC(=O)N1CCCC1	-2.429
NCc1ccc(N2CCS(=O)(=O)CC2)cc1	2.889
CC(CN)C(=O)Nc1cn[nH]c1 (centres unmarked)	55.25
CCN1CCN(C(=O)C2(C#N)CCOCC2)CC1	-4.285
CCN(C(=O)CC1C=CS(=O)(=O)C1)c1ccccc1C (centres unmarked)	3.848
CC(NC(=O)NCCn1ccnc1)c1ccccn1 (centres unmarked)	-18
COc1cc(C(C)=O)ccc1OC(C)C(=O)NC(C)C (centres unmarked)	-8.704
CN1CCCCC1CCC(=O)NCCc1ccncc1 (centres unmarked)	15.39
CO[C@H]1CNCC1NC(=O)c1sc(C)nc1C (some centres unmarked)	-5.579
CS(=O)(=O)NC1CCN(CCOc2ccccc2)CC1	-20.14
COc1cccc2c1CCNCC2	4.879
COc1ccccc1SC(C)C(=O)N1CCNC1=O (centres unmarked)	15.55
CC(C)c1cc(C(=O)NC(C(N)=O)C(C)C)n[nH]1 (centres unmarked)	9.377
Cc1nccn1CCC(=O)Nc1sccc1C#N	-3.189
COCC1CCCN(CC(=O)NCC(F)(F)F)C1 (centres unmarked)	4.204
Cc1ccsc1CN(C)C(=O)c1ccccn1	12.5
COCCC(=O)NC(C)Cc1ccc(O)cc1 (centres unmarked)	-0.1083
Cc1n[nH]c(C)c1CCN(C)C(=O)CCNS(C)(=O)=O	-21.76
CNC(=O)C(NC)c1ccc(Cl)cc1 (centres unmarked)	-4.163
CC(C)(C)OC(=O)N1CC(O)C1	9.558
CC(C)CSCCSc1nnc(N)[nH]1	9.489
COc1ccccc1C1CCN(C(=O)CCCN)C1 (centres unmarked)	14.97
O=C(NCC(=O)N1CCCC1)c1csc2ccccc12	4.061
CCN(CC)C(=O)c1cccc(C(=O)N(CC)CC)c1	2.459
CN1CCOC(C(=O)N(C)Cc2cccc(O)c2)C1 (centres unmarked)	-4.809
NC1CCN(C(=O)CCn2ccnc2)CC1	-7.512
CCN1CCCC1CNS(=O)(=O)CCCC#N (centres unmarked)	-20.61
CSCCCN1CCN(C(=O)c2ccc[nH]2)CC1	-8.697
CC(C)(C)OC(=O)N1CCN(CCCN)CC1	-4.19
CC(C)C(=O)OCC(=O)NC(=O)c1cccn1C	-10.44
CN(C)C(=O)CSc1nnc(C(F)(F)F)s1	-4.079
COCCOCC(=O)Nc1cc(C)c(Br)cn1	-4.757
CCC(C)(C)NC(=O)CN(C)Cc1nccn1C	-2.009
O=C(Nc1cccc(-n2cnnn2)c1)C1CCCO1 (centres unmarked)	-0.3985
CC1CCN(C(=O)c2ccc(-n3ccnc3)nc2)CC1	-3.338
CC1(CNC(=O)c2ccc3c(c2)OCCO3)CCOC1 (centres unmarked)	8.945
Cn1nnnc1C1CCCN(C(=O)CC2CCCC2)C1 (centres unmarked)	-0.2705
NCCN(Cc1ccncc1)Cc1ccncc1	-2.262
CNS(=O)(=O)c1ccc(CNc2cccc(C)n2)cc1	5.701
CC(C)Cc1cc(N)sn1	9.792
O=C1NCCNC1c1ccccc1Cl (centres unmarked)	-14.47
CC(C)C(=O)N1CCCC(c2nccn2CC(N)=O)C1 (centres unmarked)	-8.032
CCCC(NS(N)(=O)=O)c1ccc(F)cc1F (centres unmarked)	-10.09
CC(C)c1nccn1C1CCCNC1 (centres unmarked)	1.147
O[C@@H](Cc1ccccn1)c1ccccc1	-7.979
NCc1c(C(N)=O)oc2ccccc12	32.89

The first 8 entries again:

- Cc1ccc(NC(=O)N2CCSCC2)cc1C(N)=O : -1.533%
- Cc1c(C(=O)NCc2ccnc(N(C)C)c2)cnn1C : 12.88%
- CC(C)CC(=O)Nc1cccc(CN)c1 : -7.722%
- CNC(=O)c1cc(OC2CCNC2)ccn1 (centres unmarked) : 2.7%
- CNC(=O)c1ccc(CN(C)CC2(C)COC2)cc1 : -12.85%
- O=C(Nc1ccccc1N1CCCC1)C1CCOC1 (centres unmarked) : 2.349%
- O=C(CN1CCn2ccnc2C1)Nc1ccc(Cl)cn1 : -8.564%
- CNc1cc(C(=O)NCc2cc(C)nn2C)ccn1 : 0.9461%